# Library screen at single concentrations

Sequences of proteins named here, by UniProt entry; tags and fusion partners are left off. Residues count along the entry.
UniProt I6X8D2, whole entry: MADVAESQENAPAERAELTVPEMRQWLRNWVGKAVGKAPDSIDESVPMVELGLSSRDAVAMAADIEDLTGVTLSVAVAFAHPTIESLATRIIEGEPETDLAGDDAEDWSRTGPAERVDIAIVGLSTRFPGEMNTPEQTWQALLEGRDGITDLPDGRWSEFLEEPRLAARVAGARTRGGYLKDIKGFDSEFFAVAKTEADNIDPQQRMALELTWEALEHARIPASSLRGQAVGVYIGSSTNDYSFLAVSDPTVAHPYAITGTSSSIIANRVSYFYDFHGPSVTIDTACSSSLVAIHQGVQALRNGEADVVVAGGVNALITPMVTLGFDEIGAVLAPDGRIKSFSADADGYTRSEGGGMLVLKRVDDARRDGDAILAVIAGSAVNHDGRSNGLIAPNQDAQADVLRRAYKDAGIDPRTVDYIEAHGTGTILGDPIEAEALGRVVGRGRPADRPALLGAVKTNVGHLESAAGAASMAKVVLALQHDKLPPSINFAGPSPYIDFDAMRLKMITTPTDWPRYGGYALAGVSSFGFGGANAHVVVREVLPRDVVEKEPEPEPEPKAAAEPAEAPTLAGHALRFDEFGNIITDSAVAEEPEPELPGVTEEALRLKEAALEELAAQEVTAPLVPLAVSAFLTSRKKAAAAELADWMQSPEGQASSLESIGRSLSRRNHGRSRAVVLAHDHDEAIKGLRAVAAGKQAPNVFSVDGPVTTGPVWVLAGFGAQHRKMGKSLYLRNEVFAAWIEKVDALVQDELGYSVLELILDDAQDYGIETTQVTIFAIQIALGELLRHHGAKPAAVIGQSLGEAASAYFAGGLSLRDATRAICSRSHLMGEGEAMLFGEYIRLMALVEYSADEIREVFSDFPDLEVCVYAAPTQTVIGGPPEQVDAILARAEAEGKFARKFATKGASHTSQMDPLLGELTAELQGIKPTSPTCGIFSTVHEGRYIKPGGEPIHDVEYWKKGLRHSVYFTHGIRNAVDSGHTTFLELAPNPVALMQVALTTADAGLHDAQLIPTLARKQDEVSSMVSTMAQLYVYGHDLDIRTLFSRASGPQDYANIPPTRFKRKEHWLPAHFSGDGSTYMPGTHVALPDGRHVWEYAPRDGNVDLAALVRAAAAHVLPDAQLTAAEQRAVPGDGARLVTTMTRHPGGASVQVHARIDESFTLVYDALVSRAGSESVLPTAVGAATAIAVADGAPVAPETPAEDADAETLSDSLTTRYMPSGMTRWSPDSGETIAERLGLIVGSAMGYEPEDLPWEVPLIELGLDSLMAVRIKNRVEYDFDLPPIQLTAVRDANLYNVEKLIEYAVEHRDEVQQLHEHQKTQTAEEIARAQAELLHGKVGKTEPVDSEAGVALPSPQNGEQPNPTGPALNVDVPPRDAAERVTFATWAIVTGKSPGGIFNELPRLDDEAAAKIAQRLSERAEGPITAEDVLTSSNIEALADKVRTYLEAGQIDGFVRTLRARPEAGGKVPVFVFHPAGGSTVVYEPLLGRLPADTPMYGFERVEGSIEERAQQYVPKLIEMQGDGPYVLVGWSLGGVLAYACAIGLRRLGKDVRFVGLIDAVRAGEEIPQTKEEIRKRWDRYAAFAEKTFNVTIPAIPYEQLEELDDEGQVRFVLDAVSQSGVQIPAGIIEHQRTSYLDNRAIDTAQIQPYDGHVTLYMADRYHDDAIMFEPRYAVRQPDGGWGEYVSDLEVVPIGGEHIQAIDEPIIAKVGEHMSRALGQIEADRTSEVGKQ
UniProt Q4DA54, 1-478: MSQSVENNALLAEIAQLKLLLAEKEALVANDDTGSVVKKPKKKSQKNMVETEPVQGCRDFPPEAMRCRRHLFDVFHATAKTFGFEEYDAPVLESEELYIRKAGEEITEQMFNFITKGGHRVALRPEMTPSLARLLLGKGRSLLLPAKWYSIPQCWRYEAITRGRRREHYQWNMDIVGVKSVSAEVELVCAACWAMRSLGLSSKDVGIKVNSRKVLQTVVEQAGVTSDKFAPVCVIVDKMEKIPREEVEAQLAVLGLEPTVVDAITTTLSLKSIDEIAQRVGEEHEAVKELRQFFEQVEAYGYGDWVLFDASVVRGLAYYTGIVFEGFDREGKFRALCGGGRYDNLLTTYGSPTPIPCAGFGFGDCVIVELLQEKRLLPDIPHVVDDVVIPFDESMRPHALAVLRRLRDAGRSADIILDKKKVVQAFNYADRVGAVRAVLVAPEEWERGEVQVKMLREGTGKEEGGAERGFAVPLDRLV

The values are deposited in ChEMBL (CHEMBL3988442, “University of Dundee, Small-Polar-MMV Screening Library” (2021)).

Results are given as percent effect.
How 0% and 100% were set is not recorded. Most values in the screen are low, and negative values occur.
This is an unselected part of the compounds tested.
A dash means the value is not listed here; it may have been measured.

Pks13 thioesterase: 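Enzyme assay of the thioesterase domain of polyketide synthase 13; the read-out is not stated. Target: Polyketide synthase Pks13, Mycobacterium tuberculosis (UniProt I6X8D2). Compounds at 30 µM. The record gives no direction; the compounds picked for IC50 retests had high values, so higher reads as stronger inhibition. Of about 67,000 compounds tested this way, about 300 (0.46%) reached 50% or more in at least one test.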
TcHisRS: 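Enzyme assay of histidyl-tRNA synthetase; the read-out is not stated. Target: Histidine-tRNA ligase, Trypanosoma cruzi CL Brener (UniProt Q4DA54). Tested at 30 µM. The record gives no direction; compounds that gave an IC50 in retests scored well above the rest, so higher reads as stronger inhibition. Size under these conditions: about 69,000 compounds, about 31 of them at 50% or above in at least one test.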

structure	Pks13 thioesterase	TcHisRS
Cc1ccc(CC(=O)N2CCCC(c3cc(C(N)=O)[nH]n3)C2)cn1 (stereo not shown)	-16.46%	2.624%
Cc1noc(CSc2ccc(C(F)(F)F)cn2)n1	-17.64%	-2.463%
CCn1cnnc1CN(C)Cc1c[nH]nc1-c1ccc(F)cc1	-2.914%	-4.255%
CCCN(CCOC)C(=O)c1cc(Cn2c(C)nc3ccccc32)[nH]n1	-25.44%	9.453%
O=C(Nc1nc2c(s1)CNCC2)NC1CCCC1	-15.47%	9%
O=C(c1ccc(N2CCOCC2)nc1)N1CCCC(n2cccn2)C1 (stereo not shown)	-	6.509%
CN1C(=O)C[C@@H]2[C@@H]1CCN2S(=O)(=O)Cc1ccccc1	-11.32%	-1.653%
CN(Cc1ccc(C#N)cc1)c1ncc(C(N)=O)cc1Cl	-9.73%	-15%
COc1ccc(C(N)=O)cc1NCc1ncc(C(C)(C)C)o1	-19.32%	-0.6135%
COCCN1CCC2(CC1)CC(NC(=O)COC)c1ccccc1O2 (stereo not shown)	-7.474%	1.942%
CS(=O)(=O)CCCOc1cccc(-n2cccn2)c1	-2.657%	2.618%
Cc1n[nH]c(C)c1CC(=O)NCc1ccccc1Cl	-0.6613%	8.537%
COCCCNC(=O)CN1CCSC(c2ccccc2)C1 (stereo not shown)	-2.555%	8.696%
CCCc1nc(CN2CCOC(Cn3cncn3)C2)cs1 (stereo not shown)	-20.97%	8.092%
COc1ccccc1-c1nnc([C@H]2CCN(C(=O)C3CC3)C2)o1	5.04%	8.911%
Cc1ccc(N2CCN(C3CCc4ccccc4C3)CC2)nn1 (stereo not shown)	-8.792%	11.28%
Cc1ccc(CN2CCn3cc(CN4CCN(C)CC4)nc3C2)cc1	-4.169%	4.523%
CCN(CC)S(=O)(=O)CC(=O)N1CCc2ccc(Cl)cc21	-11.45%	8.287%
NC(=O)c1c[nH]nc1NC(=O)c1ccc(Cl)cc1	14.87%	5.78%
O=C(O)CN(C(=O)c1ccccc1)[C@H]1C[C@H]2CCOC[C@H]2C1	6.47%	2.312%
O=C1O[C@@H]2CN(Cc3cccc(O)c3)C[C@@H]2N1CCCN1CCOCC1	-3.824%	1.136%
O=C1CC(c2ccc(F)cc2)c2snc(C(=O)O)c2N1 (stereo not shown)	-1.412%	1.739%
COc1cn(CC(=O)N2CCN(c3ccc(F)cc3)CC2)c(C)cc1=O	-1.389%	-3.727%
CS(=O)(=O)NC[C@H]1OC[C@H]2CN(CCc3ccccc3)CC[C@H]21	-17.77%	8.889%
CC(C)N1CC(C(=O)NCc2ccc(S(=O)(=O)N(C)C)cc2)CC1=O (stereo not shown)	-0.3688%	5.747%
COC(=O)c1cccc2nc([C@H]3CCN(Cc4ccccc4)C3)oc12	-16.42%	-5.473%
Cc1c(C(=O)N2CCS(=O)(=O)CC2)nnn1-c1ccc2ncccc2c1	-29.1%	4.972%
CC1CN(CC(=O)Nc2nncs2)CCN1c1nccs1 (stereo not shown)	-6.213%	0.3831%
Cc1cc(NC(=O)c2ccc(N3CCOCC3)c(F)c2)[nH]n1	-18.21%	5.028%
Cc1noc(C(C)Nc2ccc3oc(C)nc3c2)n1 (stereo not shown)	-8.669%	20.21%
COCCc1noc(-c2cn(Cc3ccccc3C)nn2)n1	-13.79%	0.9662%
Cn1cc(N2CCC3(CCN(Cc4nccs4)C3)C2=O)cn1 (stereo not shown)	-12.87%	2.762%
CCNc1cc2c(nn1)CCN(C(=O)Cc1c(C)noc1C)C2	-4.53%	1.515%
CC(C)(C)c1nc(CN(Cc2cccnc2)C2CN3CCC2CC3)no1 (stereo not shown)	-28.95%	1.754%
Cn1cc(C(=O)N2CC[C@@H]3[C@@H]2CCN3c2ncc(F)cn2)cn1	-16.91%	3.922%
COC(=O)C1CN(Cc2cc(F)ccc2Br)CCO1 (stereo not shown)	-1.621%	3.704%
CCCS(=O)(=O)c1ccc(N2CCN(c3ccccn3)CC2)nn1	-2.617%	-8.247%
O=C(c1ccco1)N1CC2(CCNCC2)c2cc(Cl)ccc21	-	-1.442%
Cc1cc(NC(=O)NCCc2ccc3c(c2)OCCO3)n(C)n1	-29.03%	0%
Cc1ncc(CN2CCC(O)(c3ccccc3F)CC2)cn1	-1.966%	3.788%
Cc1nc(C2(NCc3cc(C#N)ccc3F)CCCCC2)no1	-41.22%	3.896%
CC(=O)c1ccc(N2CCCC(CO)(CCOc3ccccc3)C2)nc1 (stereo not shown)	15.55%	4.184%
COCCN1CCC(c2nc3ccc(N4CCCC4)cn3n2)CC1	-24.07%	-3.483%
Cc1noc(-c2ccc(N(C)Cc3nccs3)nc2)n1	-3.279%	-9.877%
O=C(CCCNC(=O)C1CCCO1)Nc1ccc(Cl)cc1 (stereo not shown)	4.756%	8.911%
CC1CN(Cc2cccnc2)CCN1c1ccc2nncn2n1 (stereo not shown)	-5.207%	0.5747%
Cc1nc(C2CCCN2C(=O)c2ccc3c(c2)nc(C)n3C)no1 (stereo not shown)	-17%	1.695%
O=C(c1cscn1)N1CCc2ncc(CN3CCOCC3)n2CC1	4.464%	0.9804%
COCC1CN(C(=O)[C@H]2CCCO2)Cc2nnn(CC3CC3)c21 (stereo partly shown)	-1.212%	0%
Cc1n[nH]c(C)c1C1COCCN1C(=O)c1ccc2c(c1)CCO2 (stereo not shown)	3.577%	-0.8798%
CCCN(c1ccccc1C(=O)O)S(=O)(=O)c1cccc2cccnc12	-14.4%	10.05%
CC(C)(C)c1cnc(CN2CCC(CN3CCOCC3)CC2)o1	4.6%	-1.667%
CCc1noc(CN(C)CCC(=O)Nc2ccc(C#N)c(Cl)c2)n1	4.858%	2.618%
Cc1nnc(NC(=O)N2CCN(Cc3ccc(F)cc3)C(=O)C2)s1	-14.59%	0%
CC(C)NC(=O)c1nc2c(s1)CCCN2c1ccccc1	33.39%	12.3%
COCCN1CCCn2cnc(CNC(=O)N(C)C)c2C1	-7.061%	2.674%
Cc1cnn(CC2CCCN2Cc2nc(N)c3ccccc3n2)c1 (stereo not shown)	-13.56%	9.798%
CCCc1nc(CN(C)CCOc2ccccc2)cs1	5.484%	2.532%
O=C(Cc1csc(-c2ccccc2)n1)N[C@@H](C(=O)O)c1ccccc1	2.466%	5.325%
N#Cc1ccc(CN2CCN(C(=O)c3cc(C4CC4)[nH]n3)CC2)cc1	-	-1.916%
Cc1n[nH]c(C2CN(CC(=O)NCc3ccco3)CCO2)n1 (stereo not shown)	-19.31%	6.224%
COc1cc(I)c(Cl)cc1C(=O)N(C)CC(C)(C)O	-10.31%	7.317%
Cc1ccccc1CNC(=O)N1CCC(n2cncn2)CC1	-10.23%	4.298%
CC(C(=O)Nc1cccc(F)c1)N(C)CCN1CCOCC1 (stereo not shown)	-18.56%	16.36%
Fc1cccc(-c2nc(CN3CCCCC3Cn3cncn3)co2)c1 (stereo not shown)	-37.86%	0%
Cc1nc[nH]c1C(=O)N1CC[C@@H](NC(=O)c2ccccn2)[C@H](O)C1	2.837%	5.587%
CN(Cc1cn2c(n1)CN(C1CCOCC1)CC2)Cc1ccco1	-41.52%	0%
Cc1nccn1C1CCCN(C(=O)c2ccc(N(C)C)nc2)C1 (stereo not shown)	-11.9%	0.7576%
Cn1ccc(C(=O)N2CCCC2c2cc(CCO)[nH]n2)n1 (stereo not shown)	4.684%	-56.5%
CC(C)c1ccc(C(C)NC(=O)N2CCC(n3cncn3)CC2)cc1 (stereo not shown)	-21.82%	2.256%
Cc1ccc(SCC2CNc3nc4ccccc4c(=O)n32)c(C)c1 (stereo not shown)	-12.05%	5.263%
CNC(=O)C1CN(Cc2ccc(C#N)cc2F)c2ccccc2O1 (stereo not shown)	-39.91%	3.665%
CC(C)n1nnc(CC(=O)NCC2(c3cccc(F)c3)CCCC2)n1	-12.11%	0.7576%
COCCNC(=O)NC1(c2nc(C)no2)CCCCC1	-27.99%	-8.247%
Cc1ncncc1C(=O)N1CCOC(c2nc(C(C)C)n[nH]2)C1 (stereo not shown)	-14.73%	4.624%
CCc1ccc(C(=O)NC2CCN(c3ccn(C)n3)C2)o1 (stereo not shown)	1.38%	0%
CC(=O)N1CCN(c2ccccc2CNc2ccc(C)cn2)CC1	-14.97%	1.053%

Repeated from the top, 9 entries:

structure,Pks13 thioesterase,TcHisRS
Cc1ccc(CC(=O)N2CCCC(c3cc(C(N)=O)[nH]n3)C2)cn1 (stereo not shown),-16.46%,2.624%
Cc1noc(CSc2ccc(C(F)(F)F)cn2)n1,-17.64%,-2.463%
CCn1cnnc1CN(C)Cc1c[nH]nc1-c1ccc(F)cc1,-2.914%,-4.255%
CCCN(CCOC)C(=O)c1cc(Cn2c(C)nc3ccccc32)[nH]n1,-25.44%,9.453%
O=C(Nc1nc2c(s1)CNCC2)NC1CCCC1,-15.47%,9%
O=C(c1ccc(N2CCOCC2)nc1)N1CCCC(n2cccn2)C1 (stereo not shown),-,6.509%
CN1C(=O)C[C@@H]2[C@@H]1CCN2S(=O)(=O)Cc1ccccc1,-11.32%,-1.653%
CN(Cc1ccc(C#N)cc1)c1ncc(C(N)=O)cc1Cl,-9.73%,-15%
COc1ccc(C(N)=O)cc1NCc1ncc(C(C)(C)C)o1,-19.32%,-0.6135%